Experimental findings from article PMC12320246 are described below.

Amino acid sequences for entries named in this document (tags omitted).
UniProt O00425: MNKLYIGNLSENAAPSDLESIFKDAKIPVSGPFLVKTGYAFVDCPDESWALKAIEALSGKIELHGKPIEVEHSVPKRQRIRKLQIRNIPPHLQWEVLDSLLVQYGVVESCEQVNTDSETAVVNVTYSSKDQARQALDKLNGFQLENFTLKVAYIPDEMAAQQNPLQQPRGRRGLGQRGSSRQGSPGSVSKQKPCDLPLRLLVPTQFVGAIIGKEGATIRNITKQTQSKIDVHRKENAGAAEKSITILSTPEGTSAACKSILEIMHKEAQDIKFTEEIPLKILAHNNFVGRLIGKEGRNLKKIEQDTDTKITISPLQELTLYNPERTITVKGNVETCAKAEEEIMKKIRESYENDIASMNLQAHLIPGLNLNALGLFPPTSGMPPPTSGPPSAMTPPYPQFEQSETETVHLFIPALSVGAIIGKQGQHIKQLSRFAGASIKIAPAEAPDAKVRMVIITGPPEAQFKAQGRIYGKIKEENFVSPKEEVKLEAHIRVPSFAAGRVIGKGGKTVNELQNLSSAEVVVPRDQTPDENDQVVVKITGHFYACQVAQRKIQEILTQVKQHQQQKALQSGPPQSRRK

These are yes or no findings as the source states them, for the method shown. Binding seen in cells or lysates may run through a third protein. Some results given as binding are weak or reduced against the parent protein; the word gives no strength. For part of these data: Where a sequence is shown, tags or fusion partners need not be part of it.

Assay [1] deals with T1, His-tagged OLFML1 (OLFML1^His), exogenously expressed in HEK293T (human) (UniProt Q6UWY5).
T1 sequence: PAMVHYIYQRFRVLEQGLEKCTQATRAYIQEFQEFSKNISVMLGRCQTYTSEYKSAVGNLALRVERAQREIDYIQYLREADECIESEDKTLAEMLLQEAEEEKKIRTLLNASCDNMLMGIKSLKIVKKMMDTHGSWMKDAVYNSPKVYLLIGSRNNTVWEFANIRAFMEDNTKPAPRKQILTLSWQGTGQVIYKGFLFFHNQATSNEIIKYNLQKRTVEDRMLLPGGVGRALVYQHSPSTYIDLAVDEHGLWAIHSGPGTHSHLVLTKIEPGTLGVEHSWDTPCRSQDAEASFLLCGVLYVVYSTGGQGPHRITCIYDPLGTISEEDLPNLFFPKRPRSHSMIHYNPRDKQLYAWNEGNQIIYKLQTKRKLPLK
The experiment in a line: co-IP; HEK293T cells co-transfected with His-tagged OLFML1 and Flag-tagged IGF2BP3 constructs (whole or truncated); IP with anti-Flag or anti-His; immunoblot with anti-Flag or anti-His.

Assay [2] concerns the target T2, Bacteria-expressed, purified His-tagged OLFML1 protein (rOLFML1^His) (human) (UniProt Q6UWY5).
T2 sequence: T1 sequence
The experiment in a line: pull-down; purified bacteria-expressed His-tagged OLFML1 on IDA-Nickel His beads, incubated overnight with lysate of 293T cells transfected with IGF2BP3; bound proteins eluted and analysed by western blot; only the target purified.

Assay [3] deals with T3, Olfactomedin-like 1 (OLFML1), endogenously expressed (human (endogenous in HCT8 and CaCo2)) (UniProt Q6UWY5).
T3 sequence: T1 sequence
Description: co-IP; endogenous proteins in HCT8 and CaCo2 lysate (RIPA buffer); IP with antibodies against OLFML1 or IGF2BP3 on Protein A/G agarose, 4 °C overnight; rabbit IgG as negative control; western blot.

Take “Flag-tagged IGF2BP3 (IGF2BP3^Flag) (from UniProt O00425 1-579)”: the binding result in assay [1] and in assay [2] was “binds” in each case. Turning to “Insulin-like growth factor 2 mRNA-binding protein 3 (IGF2BP3), endogenously expressed (from UniProt O00425 1-579)”, the binding entry in assay [3] is given as “binds”.
